Measured values published in paper PMC12431657, “Discovery and mechanistic insights of dibenzoylmethane as a broad spectrum inhibitor of coronavirus” (PLOS Pathogens, 2025).
Where a name gives a salt, the structure may show the parent alone. Read-outs that look alike come from different tables or passages of the source. Among all 3,300 compounds or so, about 95 (3%) showed an effect of 50% or more. Some of the results follow.

Test system: HCoV-229E
Parameters: species or system Huh-7; HTS, protection from HCoV-229E induced cell death, luminescent cell viability (CellCounting-Lite 2.0), inhibition rate
Settings: 24 h post infection, 1 h compound pre-incubation, 10 µM, inhibitor

SMILES	229E Inhibition rate [%]	229E Inhibition rate (229E Inhibition rate, 24 h) [%]
OC[C@H]1O[C@@H](Oc2cc(/C=C/c3cc(O)cc(O)c3)ccc2O)[C@H](O)[C@@H](O)[C@@H]1O [Piceatannol 3'-O-glucoside]	27.6	
COC(=O)CC/C(C)=C/Cc1c(O)c2c(c(C)c1OC)COC2=O [Methyl mycophenolate]	16.7	
CC(=O)/C=C/C1=C(C)CCCC1(C)C [β-Ionone]	17.3	
COc1cc([C@H]2OC[C@H]3[C@@H]2CO[C@@H]3c2ccc(O[C@@H]3O[C@H](CO)[C@@H](O)[C@H](O)[C@H]3O)c(OC)c2)ccc1O [Pinoresinol 4-O-β-D-glucopyranoside]	11.1	
O=c1c(O[C@@H]2O[C@H](CO)[C@H](O)[C@H](O)[C@H]2O)c(-c2ccc(O)c(O)c2)oc2cc(O)cc(O)c12 [Hyperoside]	7.6	
Cn1cncc1C[C@H](NC(=O)CCN)C(=O)O [L-Anserine nitrate]		9.8
O=C1N[C@@H](Cc2cnc[nH]2)C(=O)N2CCC[C@@H]12 [Cyclo(his-pro) (TFA)]	17.7	
C[C@@H]1C[C@H]2OC(=O)[C@@]3(C)CCC[C@@](C)([C@@H]23)[C@@]1(O)CCc1ccoc1 [Marrubiin]	59.8	
CC(C)=CCc1c2c(c(O)c3c1O[C@]14C(=C[C@@H]5C[C@@]1(C/C=C(/C)C(=O)O)C(C)(C)O[C@H]4C5=O)C3=O)C=CC(C)(C)O2 [Morellic acid]	0.3	
COc1ccc(/C=C/C(=O)CC(=O)/C=C/c2ccc(OC)c(OC)c2)cc1 [Di-O-methyldemethoxycurcumin]	10.3	
C=C1[C@@H]2CC[C@H]3[C@]4(C)C[C@H](O[C@@H]5O[C@H](CO)[C@@H](OS(=O)(=O)O)[C@H](OS(=O)(=O)O)[C@H]5OC(=O)CC(C)C)CC(C(=O)O)(C(=O)O)[C@H]4CC[C@]3(C2)[C@H]1O [Carboxyatractyloside (dipotassium)]	3	
COC(=O)C1=CO[C@@H](C)[C@H]2CN3CC[C@]4(C(=O)Nc5ccccc54)[C@@H]3C[C@H]12 [Mitraphylline]	5.5	
[C-]#[N+]C(=C\c1ccc(OC)cc1)/C(=C/c1ccc(OC)cc1)[N+]#[C-] [Xanthocillin X permethyl ether]	4.6	
C[C@H](CCC(=O)NCCS(=O)(=O)O)[C@H]1CC[C@H]2[C@@H]3CC[C@@H]4C[C@H](O)CC[C@]4(C)[C@H]3C[C@H](O)[C@]12C [Taurodeoxycholate (sodium salt)]	12.5	
O=C[C@H](O)[C@@H](O)[C@H](O)[C@H](O)CO[C@H]1O[C@H](CO[C@H]2O[C@H](CO)[C@H](O)[C@H](O)[C@H]2O)[C@H](O)[C@H](O)[C@H]1O [Manninotriose]	13	
CC(=O)Oc1ccccc1 [Phenyl acetate]	16.6	
CN(CC(=O)O)C(=N)N [Creatine]	7.6	
CC(=O)OC(C)(C)CCC(=O)[C@](C)(O)[C@H]1[C@H](O)C[C@@]2(C)[C@@H]3CC=C4[C@@H](C[C@H](O)[C@@H](O)C4(C)C)[C@]3(C)C(=O)C[C@]12C [Cucurbitacin IIa]	46.7	
Cn1cnc2c(ncn2[C@@H]2O[C@H](CO)[C@@H](O)[C@H]2O)c1=O [1-Methylinosine]	4.7	

In the list so far, 3 have four or more nitrogen atoms.
SMILES	229E Inhibition rate [%]	229E Inhibition rate (229E Inhibition rate, 24 h) [%]
Cn1cncc1C[C@H](NC(=O)CCN)C(=O)O [L-Anserine nitrate]		9.8
O=C1N[C@@H](Cc2cnc[nH]2)C(=O)N2CCC[C@@H]12 [Cyclo(his-pro) (TFA)]	17.7	
Cn1cnc2c(ncn2[C@@H]2O[C@H](CO)[C@@H](O)[C@H]2O)c1=O [1-Methylinosine]	4.7	

Further records:

SMILES	229E Inhibition rate [%]	229E Inhibition rate (229E Inhibition rate, 24 h) [%]
Cc1ncc(C[n+]2csc(CCOP(=O)(O)OP(=O)(O)O)c2C)c(N)n1 [Thiamine pyrophosphate]	8.2	
CCOC(=O)/C=C/C(=O)OCC [Diethyl fumarate]	7.4	
COc1ccc(C[C@H]2COC(=O)[C@]2(O)Cc2ccc(O[C@@H]3O[C@H](CO)[C@@H](O)[C@H](O)[C@H]3O)c(OC)c2)cc1OC [Tracheloside]	10.6	
CCCCCCCCCC=O [Decyl aldehyde]	5.4	
COc1ccc(/C=C/C(=O)/C=C(O)/C=C/c2ccc(OC)c(OC)c2)cc1OC [Dimethylcurcumin]	5.2	
COn1cc(CC#N)c2ccccc21 [Caulilexin C]	14.2	
O=c1oc2c(O)c(O)cc3c(=O)oc4c(O)c(O)cc1c4c23 [Ellagic acid]	5.6	
O=c1ccc2c(O)cc(O)cc2o1 [5,7-Dihydroxycoumarin]	12	
NC(=O)NCCC[C@H](N)C(=O)O [L-Citrulline]	7.9	
CO[C@@H]1[C@@H](O[C@@H]2O[C@H](C)[C@@H](O[C@H]3C[C@@](C)(O)[C@@H](OC(=O)CC(C)C)[C@H](C)O3)[C@H](N(C)C)[C@H]2O)[C@@H](CC=O)C[C@@H](C)[C@@H](O)/C=C/C=C/C[C@@H](C)OC(=O)C[C@H]1OC(C)=O [Josamycin]	25.8	
CC(C)=CCc1cc2c(=O)cc(-c3ccc(O)cc3)oc2cc1O [Licoflavone A]	41.2	
CSCC[C@H](NC(=O)[C@H](Cc1ccccc1)NC(=O)[C@H](Cc1cnc[nH]1)NC(=O)CNC(=O)[C@@H](NC(=O)[C@H](C)NC(=O)[C@H](Cc1c[nH]c2ccccc12)NC(=O)[C@H](CCC(N)=O)NC(=O)[C@@H]1CCC(=O)N1)C(C)C)C(N)=O [Litorin]	9.7	
COc1ccc2nccc(C(=O)O)c2c1 [Quininic acid]	33.4	
C/C1=C\C(=O)c2c(C)coc2C/C(C)=C/CC1 [Furanodienone]	8.4	
C[C@]12CC[C@H]3[C@@H](CC[C@]4(O)C[C@@H](O)CC[C@]34C=O)[C@@]1(O)CC[C@@H]2C1=CC(=O)OC1 [Strophanthidin]	42.5	
COc1cc([C@H]2OC[C@H]3[C@@H]2CO[C@H]3c2ccc(O)c(OC)c2)ccc1O [Pinoresinol]	13.6	
CC(=O)c1ccc(O)c(O)c1 [3',4'-Dihydroxyacetophenone]	12.4	
CC[C@H]1C[C@@H]2CN3CCc4c([nH]c5ccccc45)[C@](C(=O)OC)(C2)[C@H]13 [Coronaridine]	41.8	
